Results from patent publication US20130333059A1, “HOX COMPOSITIONS AND METHODS” (THE JOHNS HOPKINS UNIVERSITY, priority 2006, published 2013).
These are yes or no findings as the source states them, for the method shown. For some of these results: In cells and extracts the contact can be indirect. Some results given as binding are weak or reduced against the parent protein; the word gives no strength.

Amino acid sequences for entries named in this document (tags omitted). Residues count along the entry.
UniProt P09874, residues 2-1014: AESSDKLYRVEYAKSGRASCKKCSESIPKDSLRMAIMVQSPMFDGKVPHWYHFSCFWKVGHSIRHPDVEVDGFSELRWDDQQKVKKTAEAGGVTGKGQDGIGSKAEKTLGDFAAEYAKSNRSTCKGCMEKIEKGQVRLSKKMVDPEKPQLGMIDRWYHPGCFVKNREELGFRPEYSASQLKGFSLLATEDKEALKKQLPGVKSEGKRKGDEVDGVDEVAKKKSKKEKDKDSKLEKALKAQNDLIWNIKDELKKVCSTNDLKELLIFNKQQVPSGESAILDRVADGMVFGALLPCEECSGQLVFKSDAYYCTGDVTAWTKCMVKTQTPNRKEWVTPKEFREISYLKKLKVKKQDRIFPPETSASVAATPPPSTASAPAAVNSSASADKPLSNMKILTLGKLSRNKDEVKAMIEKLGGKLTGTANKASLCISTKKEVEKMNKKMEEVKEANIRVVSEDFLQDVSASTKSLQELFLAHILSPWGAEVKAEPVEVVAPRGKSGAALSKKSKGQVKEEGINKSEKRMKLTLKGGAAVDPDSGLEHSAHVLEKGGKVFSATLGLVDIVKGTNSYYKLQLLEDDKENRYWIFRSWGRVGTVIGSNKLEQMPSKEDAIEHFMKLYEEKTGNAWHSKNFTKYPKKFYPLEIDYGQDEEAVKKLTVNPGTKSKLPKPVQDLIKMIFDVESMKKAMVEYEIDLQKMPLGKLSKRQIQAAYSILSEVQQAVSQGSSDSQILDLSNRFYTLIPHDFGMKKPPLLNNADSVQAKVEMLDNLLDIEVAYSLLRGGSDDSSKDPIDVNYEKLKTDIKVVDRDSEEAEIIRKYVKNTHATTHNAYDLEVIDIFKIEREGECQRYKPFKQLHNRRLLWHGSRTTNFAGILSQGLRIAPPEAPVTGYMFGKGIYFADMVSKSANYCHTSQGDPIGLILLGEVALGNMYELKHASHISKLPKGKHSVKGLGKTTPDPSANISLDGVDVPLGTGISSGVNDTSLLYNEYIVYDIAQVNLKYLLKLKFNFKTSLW
UniProt P09629: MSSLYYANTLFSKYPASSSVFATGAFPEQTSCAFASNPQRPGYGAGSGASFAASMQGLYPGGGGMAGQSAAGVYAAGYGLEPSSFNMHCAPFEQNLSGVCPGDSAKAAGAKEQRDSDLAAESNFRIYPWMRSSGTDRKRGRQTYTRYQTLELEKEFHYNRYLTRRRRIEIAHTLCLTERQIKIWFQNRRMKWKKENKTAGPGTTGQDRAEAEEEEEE

Experiments:
[1] = molecular target: poly(ADP) ribose polymerase (PARP) (human) (UniProt P09874); test: GST-HOXB7 affinity matrix, SKBR3 extract, immunoblot (FIG. 9B)
[2] = molecular target: poly(ADP) ribose polymerase (PARP) (human) (UniProt P09874); test: GST-HOXB7 affinity chromatography of cell extracts; MALDI-TOF peptide mass fingerprint and immunoblot of eluate
[3] = molecular target: poly(ADP) ribose polymerase (PARP) (human) (UniProt P09874); test: GST pull-down/affinity chromatography; co-immunoprecipitation
[4] = molecular target: poly(ADP) ribose polymerase (PARP) (human) (UniProt P09874); test: co-immunoprecipitation with GFP antibodies from stably transfected SKBR3 cells, Western blot (FIG. 9C)

Row | Substance | binding [1] | binding [2] | binding [3] | binding [4]
1 | GST-HOXB7 (from UniProt P09629 1-217) | binds | binds | binds | 
2 | HOXB7-YFP (from UniProt P09629 1-217) |  |  |  | binds
